Measured values from PMC11555414.
Results are given in words; binding and its absence hold for the method and conditions named. In cells and extracts the contact can be indirect. Some binding calls cover weakened binding; strength is not graded here. One block for each substance: values may come before it.

Chains of the proteins cited; added tags and fusions are not shown. Residues count along the entry.
UniProt P23368, residues 19-584: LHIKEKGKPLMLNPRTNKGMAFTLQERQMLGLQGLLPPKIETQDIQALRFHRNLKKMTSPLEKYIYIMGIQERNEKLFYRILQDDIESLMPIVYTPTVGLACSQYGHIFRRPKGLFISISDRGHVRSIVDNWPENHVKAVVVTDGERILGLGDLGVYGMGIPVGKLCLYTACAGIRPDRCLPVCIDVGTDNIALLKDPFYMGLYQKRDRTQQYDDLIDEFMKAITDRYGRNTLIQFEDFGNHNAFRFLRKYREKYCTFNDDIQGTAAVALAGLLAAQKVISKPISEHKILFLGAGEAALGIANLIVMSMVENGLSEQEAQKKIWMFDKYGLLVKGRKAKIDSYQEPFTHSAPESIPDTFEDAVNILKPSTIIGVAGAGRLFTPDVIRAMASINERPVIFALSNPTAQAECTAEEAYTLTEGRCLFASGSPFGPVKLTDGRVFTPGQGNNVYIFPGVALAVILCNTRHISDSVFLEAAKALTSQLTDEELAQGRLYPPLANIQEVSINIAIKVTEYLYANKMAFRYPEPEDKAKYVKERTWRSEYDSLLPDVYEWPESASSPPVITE
UniProt Q99873: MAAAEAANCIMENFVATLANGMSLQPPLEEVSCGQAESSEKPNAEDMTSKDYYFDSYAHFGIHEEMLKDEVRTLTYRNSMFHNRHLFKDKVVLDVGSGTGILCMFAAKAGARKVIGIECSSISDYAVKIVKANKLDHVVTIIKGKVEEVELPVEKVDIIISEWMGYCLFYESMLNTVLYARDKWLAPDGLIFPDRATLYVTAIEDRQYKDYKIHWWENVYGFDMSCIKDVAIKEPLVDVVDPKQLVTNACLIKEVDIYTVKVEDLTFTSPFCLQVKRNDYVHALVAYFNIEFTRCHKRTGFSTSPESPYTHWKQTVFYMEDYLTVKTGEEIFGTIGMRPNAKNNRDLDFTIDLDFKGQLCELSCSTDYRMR
UniProt Q969H0: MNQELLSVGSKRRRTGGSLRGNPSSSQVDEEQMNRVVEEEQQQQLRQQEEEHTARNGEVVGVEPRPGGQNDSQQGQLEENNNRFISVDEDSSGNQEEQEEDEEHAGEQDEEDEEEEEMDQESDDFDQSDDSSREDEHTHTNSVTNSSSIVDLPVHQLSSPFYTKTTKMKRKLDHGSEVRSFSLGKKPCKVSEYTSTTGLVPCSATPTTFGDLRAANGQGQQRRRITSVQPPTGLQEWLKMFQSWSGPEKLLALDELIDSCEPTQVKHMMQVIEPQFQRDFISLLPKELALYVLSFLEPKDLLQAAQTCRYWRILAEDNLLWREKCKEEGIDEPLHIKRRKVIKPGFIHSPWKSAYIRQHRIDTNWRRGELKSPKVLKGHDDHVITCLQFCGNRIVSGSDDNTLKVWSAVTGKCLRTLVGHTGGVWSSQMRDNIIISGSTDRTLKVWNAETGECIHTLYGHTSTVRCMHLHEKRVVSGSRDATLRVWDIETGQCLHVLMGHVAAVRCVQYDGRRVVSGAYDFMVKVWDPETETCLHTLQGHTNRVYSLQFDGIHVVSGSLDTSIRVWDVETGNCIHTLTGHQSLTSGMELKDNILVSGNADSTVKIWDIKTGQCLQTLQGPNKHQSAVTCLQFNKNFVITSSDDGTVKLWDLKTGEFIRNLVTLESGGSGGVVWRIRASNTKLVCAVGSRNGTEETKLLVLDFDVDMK

Experiments:
[1] = molecular target: ME2 in cytoplasmic and mitochondrial fractions of transfected HCC cells (human) (UniProt P23368); experiment: co-IP; cytoplasmic and mitochondrial fractions of HCC cells transfected with indicated plasmids, immunoprecipitated with an anti-Flag antibody, western blotting
[2] = molecular target: Flag-tagged PRMT1 (UniProt Q99873); experiment: co-IP; HEK293T cells transfected with Flag-tagged PRMT1 and HA-tagged ME2; anti-Flag M2 magnetic beads, NP40 buffer washes, western blotting
[3] = molecular target: ME2, exogenous (co-IPs with FBW7) (human) (UniProt P23368); experiment: co-IP; exogenous immunoprecipitation of FBW7 and ME2 (Fig. 7F, G); cells and tags not named
[4] = molecular target: ME2, exogenous (co-IPs with FBW7) (human) (UniProt P23368); experiment: co-IP; exogenous immunoprecipitation of FBW7 and ME2 with PRMT1 (Fig. 7H); cells and tags not named
[5] = molecular target: ME2 (mitochondrial malic enzyme 2), endogenous (human (endogenous in HCC cells)) (UniProt P23368); experiment: co-IP; immunoprecipitation of endogenous ME2 and FBW7 (Fig. 7E); cells not named
[6] = molecular target: ME2 (mitochondrial malic enzyme 2), endogenous (human (endogenous in HCC cells)) (UniProt P23368); experiment: co-IP; endogenous immunoprecipitation of FBW7 and ME2, effect of PRMT1 (Fig. 7I); cells not named
[7] = molecular target: ME2 (mitochondrial malic enzyme 2), endogenous (human (endogenous in HCC cells)) (UniProt P23368); experiment: co-IP; endogenous ME2 and PRMT1 in HCC cells, immunoprecipitation in both directions (Fig. 1D, E), western blotting

Substance: PRMT1 in cytoplasmic and mitochondrial fractions of transfected HCC cells (from UniProt Q99873 1-371) (enzyme)
- binding [1]: binds

Substance: FBW7, endogenous (immunoprecipitations of Fig. 7E and 7I) (from UniProt Q969H0 1-707)
- binding [5]: binds
- binding [6]: binds

Substance: protein arginine methyltransferase 1 (PRMT1), endogenous in HCC cells (from UniProt Q99873 1-371) (enzyme)
- binding [7]: binds

Second part, the substance after the results:

- binding [2]: binds
Substance: HA-tagged ME2 (mitochondrial malic enzyme 2) (from UniProt P23368 19-584)

- binding [3]: binds
- binding [4]: binds
Substance: FBW7, exogenous (from UniProt Q969H0 1-707)
